The list does not hold the whole screen: it gathers tests that were run many times, whatever their T/C, doses with no T/C, and many T/C values between a quarter and a half above the control. Other doses and runs of a compound stand elsewhere. T/C is the treated group as % of the vehicle group. Some doses have a count of surviving animals in place of a T/C: the source holds a T/C of zero for them, seemingly a mark for toxic or unscored doses. Some survivor counts are full or nearly so, which does not show that the dose was tolerated: the source hardly ever lists a survival T/C far under the control, and the zero likely stands for such cases as well. Counts of survivors are from the toxicity check (mostly the fifth day) where no day follows; animals may have died later. Schedules are NCI's codes, taken here to give the interval after Q, in days (D) or hours (H), and the number of doses after X. Some molecules as drawn cover several salts, stereoisomers or complexes of the source; a dose is that of the sample tested. Where survival is the endpoint, the PubChem record calls one and a half times the control and up active, and a quarter to a half above the control has no call in these data; cut-offs in other NCI protocols can differ. Some entries hold several experiments; the values are given in rising order.
Tested on: P388 leukemia ip, CD2F1 mice, survival T/C
Assay: NCI In Vivo Anticancer Drug Screen. Data for tumor model P388 Leukemia (intraperitoneal) in CD2F1 (CDF1) mice
Conditions: T/C endpoint: median survival time, higher T/C = longer survival
[1] = dose: 100.0 mg/kg/injection, schedule: Q01DX009 (ip), vehicle: saline
[2] = dose: 200.0 mg/kg/injection, schedule: Q01DX009 (ip), vehicle: saline
[3] = dose: 100.0 mg/kg/injection, schedule: Q01DX009 (ip), vehicle: saline with Tween-80
[4] = dose: 200.0 mg/kg/injection, schedule: Q01DX009 (ip), vehicle: saline with Tween-80
[5] = dose: 50.0 mg/kg/injection, schedule: Q01DX009 (ip), vehicle: saline
[6] = dose: 200.0 mg/kg/injection, schedule: Q01DX009 (ip), vehicle: Klucel (hydroxypropylcellulose) (HPC)
[7] = dose: 50.0 mg/kg/injection, schedule: Q01DX005 (ip), vehicle: Klucel (hydroxypropylcellulose) (HPC)
[8] = dose: 200.0 mg/kg/injection, schedule: Q01DX005 (ip), vehicle: Klucel (hydroxypropylcellulose) (HPC)
[9] = dose: 400.0 mg/kg/injection, schedule: Q04DX002 (ip), vehicle: Klucel (hydroxypropylcellulose) (HPC)
[10] = dose: 400.0 mg/kg/injection, schedule: Q01DX009 (ip), vehicle: saline with Tween-80

With `CSc1c(Cl)cc(Cl)cc1C(=O)O` the T/C (dose: 25.0 mg/kg/injection, schedule: Q01DX009 (ip), vehicle: saline + alcohol) was 125 % of control.

With `CC1CCC(C)(C(O)c2ccc(C(O)C3(C)CCC(C)C3(C)C)cc2)C1(C)C` (stereo not drawn) the survivor count [1] was 3 of 6 and the survivor count (dose: 200.0 mg/kg/injection, schedule: Q01DX009 (ip), vehicle: suspension in saline) was 3 of 6.

`CONc1ccn(C2OC(CO)C(O)C2O)c(=O)n1` (stereo not drawn) was tested, and the T/C [1] was 127 % of control and the T/C [2] was 126 and 133 % of control.

`c1ccc2c(c1)Sc1ccccc1N2CC1CN2CCC1CC2` (stereo not drawn) was tested, and the survivor count (dose: 50.0 mg/kg/injection, schedule: Q01DX009 (ip), vehicle: saline with Tween-80) was 0 of 6, the survivor count [3] was 0 of 6 and the survivor count [4] was 0 of 6.

For `CC1OC(=Nc2ccccc2)NC1=O` (stereo not drawn), the survivor count (dose: 400.0 mg/kg/injection, schedule: Q01DX001 (ip), vehicle: saline with Tween-80) was 5 of 6.

For `Cc1ccc(CCn2c3c(c4cc(Cl)ccc42)CN(C)CC3)cn1`, the survivor count [2] was 0 of 6.

For `[Br][Pt+2][Br].[NH-]C(c1ccccc1)C([NH-])c1ccccc1` (stereo not drawn), the T/C (dose: 12.5 mg/kg/injection, schedule: Q04DX002 (ip), vehicle: saline with Tween-80) was 128 % of control, the T/C (dose: 25.0 mg/kg/injection, schedule: Q04DX002 (ip), vehicle: saline with Tween-80) was 128 and 132 % of control and the T/C (dose: 50.0 mg/kg/injection, schedule: Q04DX002 (ip), vehicle: saline with Tween-80) was 131 and 132 % of control.

`Cc1cc(Br)c(NC(=O)c2c(-c3c(Cl)cccc3Cl)noc2C)c(Br)c1` was tested, and the survivor count (dose: 240.0 mg/kg/injection, schedule: Q01DX005 (ip), vehicle: Klucel (hydroxypropylcellulose) (HPC)) was 6 of 6.

In the case of `CC1=C(CO)C(=O)OC(C(C)C2CCC3C4CC5OC56C(O)C(N5CC5)=CC(=O)C6(C)C4CCC23C)C1` (stereo not drawn), the T/C (dose: 80.0 mg/kg/injection, schedule: Q01DX005 (ip), vehicle: Klucel (hydroxypropylcellulose) (HPC)) is reported as 149 % of control and the survivor count (dose: 160.0 mg/kg/injection, schedule: Q01DX005 (ip), vehicle: Klucel (hydroxypropylcellulose) (HPC)) is reported as 1 of 5.

`O=C1CCC(=O)N1SC(Cl)(Cl)Cl` was tested, and the survivor count (dose: 50.0 mg/kg/injection, schedule: Q01DX005 (ip), vehicle: saline with Tween-80) was 2 of 5, the survivor count (dose: 100.0 mg/kg/injection, schedule: Q01DX005 (ip), vehicle: saline with Tween-80) was 0 of 5 and the survivor count (dose: 200.0 mg/kg/injection, schedule: Q01DX005 (ip), vehicle: saline with Tween-80) was 0 of 5.

In the case of `CS(=O)(=O)CS(=O)(=O)OCCF`, the T/C (dose: 6.25 mg/kg/injection, schedule: Q01DX005 (ip), vehicle: saline) is reported as 142 % of control, the survivor count (dose: 50.0 mg/kg/injection, schedule: Q01DX005 (ip), vehicle: saline) is reported as 0 of 6 and the survivor count (dose: 100.0 mg/kg/injection, schedule: Q01DX005 (ip), vehicle: saline) is reported as 0 of 6.

For `COc1ccc(-n2c(C)c(COC(C)=O)c(COC(C)=O)c2C)cc1`, the survivor count [5] was 4 of 6.

For `Cc1cccc(Nc2n[nH]c(N)n2)c1`, the survivor count [6] was 1 of 6.

`CC[N+](C)(CC)C/C(C)=C(/c1ccccc1S(=O)(=O)N(C)C)C(C)C[N+](C)(CC)CC` (stereo not drawn) was tested, and the survivor count (dose: 50.0 mg/kg/injection, schedule: Q04DX003 (ip), vehicle: saline) was 3 of 6, the survivor count (dose: 100.0 mg/kg/injection, schedule: Q04DX003 (ip), vehicle: saline) was 0 of 6 and the survivor count (dose: 200.0 mg/kg/injection, schedule: Q04DX003 (ip), vehicle: saline) was 0 of 6. The survivor count (dose: 400.0 mg/kg/injection, schedule: Q04DX003 (ip), vehicle: saline) was 0 of 6.

For `CCCCCCCCCCCC(=O)NC1CC(O[C@H]2C[C@](O)(C(C)=O)Cc3c(O)c4c(c(O)c32)C(=O)c2c(OC)cccc2C4=O)OC(C)C1O` (stereo partly drawn), the T/C (dose: 1.5 mg/kg/injection, schedule: Q01DX009 (ip), vehicle: other) was 138 % of control, the T/C (dose: 3.0 mg/kg/injection, schedule: Q01DX009 (ip), vehicle: other) was 134 % of control and the T/C (dose: 64.0 mg/kg/injection, schedule: Q04DX003 (ip), vehicle: other) was 133 % of control.

In the case of `NC(=O)Nc1cc2[nH]c(=O)oc2cc1Cl`, the survivor count [7] is reported as 6 of 6 and the survivor count [8] is reported as 1 of 6.

In the case of `COc1cc2c(cc1OC)C13CCN4CC5=CCOC6CC(=O)N2C1C6C5CC43` (stereo not drawn) (tested in a mixture with another compound), the survivor count (dose: 100.0 mg/kg/injection, schedule: Q04DX003 (ip), vehicle: saline with Tween-80) is reported as 3 of 6, the survivor count [4] is reported as 2 of 6 and the survivor count (dose: 200.0 mg/kg/injection, schedule: Q04DX003 (ip), vehicle: saline with Tween-80) is reported as 0 of 6. The survivor count (dose: 400.0 mg/kg/injection, schedule: Q04DX003 (ip), vehicle: saline with Tween-80) was 1 of 6.

For `Cn1c(N)c(C(=O)c2ccccc2)c(=O)n(C)c1=O`, the survivor count (dose: 50.0 mg/kg/injection, schedule: Q01DX009 (ip), vehicle: Klucel (hydroxypropylcellulose) (HPC)) was 6 of 6, the survivor count (dose: 100.0 mg/kg/injection, schedule: Q01DX009 (ip), vehicle: Klucel (hydroxypropylcellulose) (HPC)) was 2 of 6 and the survivor count [6] was 1 of 6.

With `O=C(O)C1(Cc2ccc(O)cc2)NCCS1` (stereo not drawn) the survivor count [9] was 3 of 6.

With `CCOC(=O)N1CCN(c2ccc(/C=C\c3cccc(/C=C\c4ccc(N5CCN(C(=O)OCC)CC5)cc4)[n+]3C)cc2)CC1` the survivor count (dose: 12.5 mg/kg/injection, schedule: Q01DX009 (ip), vehicle: saline) was 1 of 6, the survivor count [5] was 2 of 6 and the survivor count [1] was 0 of 6. For the same molecule, the survivor count [2] was 0 of 6.

With `CC(C)(C)c1ccc(C(=O)NNC(O)C(F)(F)F)cc1` (stereo not drawn) the survivor count [9] was 0 of 6.

For `COc1ccccc1N=Nc1cccc[c]1[Hg][Cl]`, the T/C (dose: 18.0 mg/kg/injection, schedule: Q01DX009 (ip), vehicle: saline) was 130 % of control, the T/C (dose: 36.0 mg/kg/injection, schedule: Q01DX009 (ip), vehicle: saline) was 133 % of control and the survivor count [5] was 1 of 6. The survivor count [1] was 0 of 6 and the survivor count [2] was 2 of 6.

With `CC(=O)NNC(=O)C(Cl)Cl` the survivor count [1] was 6 of 6 and the survivor count [2] was 0 of 6.

In the case of `Cc1nn(CCO)c(C)c1N=[N+]([O-])c1c(C)nn(CCO)c1C`, the survivor count (dose: 200.0 mg/kg/injection, schedule: Q04DX003 (ip), vehicle: Klucel (hydroxypropylcellulose) (HPC)) is reported as 1 of 6.

In the case of `OCc1nccn1Cc1ccccc1`, the survivor count (dose: 200.0 mg/kg/injection, schedule: Q01DX001 (ip), vehicle: saline) is reported as 2 of 6.

In the case of `COc1cc2ccnc(CCCc3nccc4cc(OC)c(OC)cc34)c2cc1OC`, the survivor count (dose: 200.0 mg/kg/injection, schedule: Q04DX002 (ip), vehicle: Klucel (hydroxypropylcellulose) (HPC)) is reported as 1 of 6 and the survivor count [9] is reported as 0 of 6.

`COc1cc([C@H]2OC[C@H]3[C@@H]2CO[C@@H]3c2ccc(OC(C)=O)c(OC)c2)ccc1OC(C)=O` was tested, and the survivor count [7] was 6 of 6, the survivor count (dose: 100.0 mg/kg/injection, schedule: Q01DX005 (ip), vehicle: Klucel (hydroxypropylcellulose) (HPC)) was 5 of 5 and the survivor count [8] was 5 of 5.

For `C[C@]12CC[C@H](O)C[C@@]1(O)CC[C@@H]1[C@@H]2CC[C@]2(C)[C@@H](c3ccc(=O)oc3)C[C@H]3O[C@]132`, the survivor count (dose: 20.0 mg/kg/injection, schedule: Q01DX005 (ip), vehicle: saline + alcohol) was 2 of 6.

In the case of `COc1nc(=O)n(C2C=CC(=O)O2)cc1F` (stereo not drawn), the T/C (dose: 10.0 mg/kg/injection, schedule: Q01DX009 (ip), vehicle: saline) is reported as 139 % of control and the T/C (dose: 60.0 mg/kg/injection, schedule: Q01DX009 (ip), vehicle: saline) is reported as 125 % of control.

For `Nc1[nH]c(=O)ncc1NC(=O)C(=O)Nc1cnc(=O)[nH]c1N`, the survivor count [3] was 0 of 6, the survivor count [4] was 1 of 6 and the survivor count [10] was 0 of 6.

For `C[C@]12CC[C@H]3C(=CCc4cc(O)ccc43)[C@@H]1C/C(=N\O)C2=O`, the T/C [10] was 135 % of control.

For `O=C1C(Br)=C(Nc2ccccc2)C(=O)C(Br)=C1Nc1ccccc1`, the survivor count [8] was 5 of 5.

From PubChem BioAssay AID330 (DTP/NCI, 2004)
